# Results reported in the supplement of paper PMC8728848.
# The other results are listed elsewhere or left out.
# B1: YghJ (Escherichia coli), E3PJ90 (protein)
# chain: MNKKFKYKKSLLAAILSATLLAGCDGGGSGSSSDTPPVDSGTGSLPEVKPDPTPNPEPTPEPTPDPEPTPEPIPDPEPTPEPEPEPVPTKTGYLTLGGSQRVTGATCNGESSDGFTFKPGEDVTCVAGNTTIATFNTQSEAARSLRAVEKVSFSLEDAQELAGSDDKKSNAVSLVTSSNSCPANTEQVCLTFSSVIESKRFDSLYKQIDLAPEEFKKLVNEEVENNAATDKAPSTHTSPVVPVTTPGTKPDLNASFVSANAEQFYQYQPTEIILSEGRLVDSQGYGVAGVNYYTNSGRGVTGENGEFSFSWGEAISFGIDTFELGSVRGNKSTIALTELGDEVRGANIDQLIHRYSTTGQNNTRVVPDDVRKVFAEYPNVINEIINLSLSNGATLGEGEQVVNLPNEFIEQFNTGQAKEIDTAICAKTDGCNEARWFSLTTRNVNDGQIQGVINKLWGVDTNYKSVSKFHVFHDSTNFYGSTGNARGQAVVNISNAAFPILMARNDKNYWLAFGEKRAWDKNELAYITEAPSIVRPENVTRETASFNLPFISLGQVGDGKLMVIGNPHYNSILRCPNGYSWNGGVNKDGQCTLNSDPDDMKNFMENVLRYLSNDRWLPDAKSSMTVGTNLETVYFKKHGQVLGNSAPFAFHKDFTGITVKPMTSYGNLNPDEVPLLILNGFEYVTQWGSDPYSIPLRADTSKPKLTQQDVTDLIAYMNKGGSVLIMENVMSNLKEESASGFVRLLDAAGLSMALNKSVVNNDPQGYPDRVRQRRSTPIWVYERYPAVDGKPPYTIDDTTKEVIWKYQQENKPDDKPKLEVASWQEEVEGKQVTQFAFIDEADHKTPESLAAAKQRILDAFPGLEVCKDSDYHYEVNCLEYRPGTDVPVTGGMYVPQYTQLDLSADTAKAMLQAADLGTNIQRLYQHELYFRTNGRQGERLNSVDLERLYQNMSVWLWNETKYRYEEGKEDELGFKTFTEFLNCYTNNAYVGTQCSAELKKSLIDNKMIYGEESSKAGMMNPSYPLNYMEKPLTRLMLGRSWWDLNIKVDVEKYPGVVNTNGETVTQNINLYSAPTKWFAGNMQSTGLWAPAQQEVSIESKSTVPVTVTVALADDLTGREKHEVSLNRPPRVTKTYDLKANDKVTFKVPYGGLIYIKGDSKEVQSADFTFTGVVKAPFYKDGKWQHDLNSPAPLGELESASFVYTTPKKNLNASNYTGGLEQFANDLDTFASSMNDFYGRDSEDGKHRMFTYKNLPGHKHRFANDVQISIGDAHSGYPVMNSSFSPNSTTLPTTPLNDWLIWHEVGHNAAETPLTVPGATEVANNVLALYMQDRYLGKMNRVADDITVAPEYLEESNGQAWARGGAGDRLLMYAQLKEWAEKNFDIKKWYPDGTPLPEFYSEREGMKGWNLFQLMHRKARGDEVSNDKFGGKNYCAESNGNAADTLMLCASWVAQTDLSEFFKKWNPGANAYQLPGASEMSFEGGVSQSAYNTLASLDLPKPEQGPETINQVTEHKMSAE
# Legend:
# Assay in all cases: glycan array binding signal (z-score within array); higher = stronger binding
# Conditions in all cases: glycan notation: IUPAC condensed, linker removed
# Neu5Ac(a2-8)Neu5Ac = target: Neu5Ac(a2-8)Neu5Ac
# In short: (§1)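 Glycan array data came from 3228 arrays in the Consortium for Functional Glycomics database, and only arrays with an available protein sequence were kept. Glycan names were put into IUPAC-condensed notation, and columns mapping to the same glycan were averaged. The binding signal is a within-array Z-score, averaged across arrays of one protein sequence run at different concentrations or buffers and across linkers. A negative Z-score can be read as non-binding.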
# [1] = target: Neu5Ac(a2-8)Neu5Ac(a2-3)Gal(b1-3)GalNAc(b1-4)[Neu5Ac(a2-3)]Gal(b1-4)Glc
# In short: as §1
# [2] = target: Neu5Ac(a2-8)Neu5Ac(a2-3)Gal(b1-3)GalNAc(b1-4)[Neu5Ac(a2-8)Neu5Ac(a2-3)]Gal(b1-4)Glc
# In short: as §1
# [3] = target: Neu5Ac(a2-8)Neu5Ac(a2-3)Gal(b1-4)Glc
# In short: as §1
# [4] = target: Neu5Ac(a2-8)Neu5Ac(a2-3)Gal(b1-4)GlcNAc
# In short: as §1
# [5] = target: Neu5Ac(a2-8)Neu5Ac(a2-3)[Gal(b1-3)GalNAc(b1-4)]Gal(b1-4)Glc
# In short: as §1
# [6] = target: Neu5Ac(a2-8)Neu5Ac(a2-3)[GalNAc(b1-4)]Gal(b1-4)Glc
# In short: as §1
# [7] = target: Neu5Ac(a2-8)Neu5Ac(a2-8)Neu5Ac
# In short: as §1
# [8] = target: Neu5Ac(a2-8)Neu5Ac(a2-8)Neu5Ac(a2-3)Gal(b1-4)Glc
# In short: as §1
# [9] = target: Neu5Ac(a2-8)Neu5Ac(a2-8)Neu5Ac(a2-3)[Gal(b1-3)GalNAc(b1-4)]Gal(b1-4)Glc
# In short: as §1
# [10] = target: Neu5Ac(a2-8)Neu5Ac(a2-8)Neu5Ac(a2-3)[GalNAc(b1-4)]Gal(b1-4)Glc
# In short: as §1
# [11] = target: Neu5Ac(a2-8)Neu5Ac(a2-8)Neu5Ac(a2-8)Neu5Ac(a2-3)[GalNAc(b1-4)]Gal(b1-4)Glc
# In short: as §1
# [12] = target: Neu5Ac(a2-8)Neu5Gc(a2-3)Gal(b1-4)GlcNAc
# In short: as §1
# [13] = target: Neu5Ac(b2-6)Gal(b1-4)GlcNAc
# In short: as §1
# Neu5Ac(b2-6)GalNAc = target: Neu5Ac(b2-6)GalNAc
# In short: as §1
# [14] = target: Neu5Ac9Ac(a2-3)Gal(b1-3)GlcNAc
# In short: as §1
# [15] = target: Neu5Ac9Ac(a2-3)Gal(b1-4)GlcNAc
# In short: as §1
# [16] = target: Neu5Ac9Ac(a2-6)Gal(b1-4)GlcNAc
# In short: as §1
# [17] = target: Neu5Gc(a2-3)Gal(b1-3)GlcNAc
# In short: as §1
# [18] = target: Neu5Gc(a2-3)Gal(b1-3)[Fuc(a1-4)]GlcNAc
# In short: as §1
# Neu5Gc(a2-3)Gal(b1-4)Glc = target: Neu5Gc(a2-3)Gal(b1-4)Glc
# In short: as §1
# [19] = target: Neu5Gc(a2-3)Gal(b1-4)GlcNAc
# In short: as §1
# [20] = target: Neu5Gc(a2-3)Gal(b1-4)GlcNAc(b1-3)Gal(b1-4)GlcNAc(b1-2)Man(a1-3)[Neu5Gc(a2-3)Gal(b1-4)GlcNAc(b1-3)Gal(b1-4)GlcNAc(b1-2)Man(a1-6)]Man(b1-4)GlcNAc(b1-4)GlcNAc
# In short: as §1
# [21] = target: Neu5Gc(a2-3)Gal(b1-4)[Fuc(a1-3)]GlcNAc
# In short: as §1
# [22] = target: Neu5Gc(a2-6)Gal(b1-4)GlcNAc
# In short: as §1
# Neu5Gc(a2-6)GalNAc = target: Neu5Gc(a2-6)GalNAc
# In short: as §1
# [23] = target: Neu5Gc(a2-8)Neu5Ac(a2-3)Gal(b1-4)GlcNAc
# In short: as §1
# [24] = target: Neu5Gc(a2-8)Neu5Gc(a2-3)Gal(b1-4)GlcNAc
# In short: as §1
# [25] = target: Neu5Gc(a2-8)Neu5Gc(a2-3)Gal(b1-4)GlcNAc(b1-3)Gal(b1-4)GlcNAc
# In short: as §1
# [26] = target: Neu5Gc(a2-8)Neu5Gc(a2-6)Gal(b1-4)GlcNAc
# In short: as §1
# [27] = target: Neu5Gc(b2-6)Gal(b1-4)GlcNAc
# In short: as §1
binder,measurement,setting,value
B1,glycan array binding signal (z-score),Neu5Ac(a2-8)Neu5Ac,-0.826
same,glycan array binding signal (z-score),[1],-1.39
same,glycan array binding signal (z-score),[2],-0.076
same,glycan array binding signal (z-score),[3],0.732
same,glycan array binding signal (z-score),[4],5.47
same,glycan array binding signal (z-score),[5],0.298
same,glycan array binding signal (z-score),[6],-0.46
same,glycan array binding signal (z-score),[7],-0.308
same,glycan array binding signal (z-score),[8],-0.39
same,glycan array binding signal (z-score),[9],0.361
same,glycan array binding signal (z-score),[10],0.228
same,glycan array binding signal (z-score),[11],-0.944
same,glycan array binding signal (z-score),[12],-0.939
same,glycan array binding signal (z-score),[13],0.893
same,glycan array binding signal (z-score),Neu5Ac(b2-6)GalNAc,-0.992
same,glycan array binding signal (z-score),[14],-0.281
same,glycan array binding signal (z-score),[15],0.565
same,glycan array binding signal (z-score),[16],-0.926
same,glycan array binding signal (z-score),[17],-0.507
same,glycan array binding signal (z-score),[18],-0.198
same,glycan array binding signal (z-score),Neu5Gc(a2-3)Gal(b1-4)Glc,0.39
same,glycan array binding signal (z-score),[19],2.24
same,glycan array binding signal (z-score),[20],1.61
same,glycan array binding signal (z-score),[21],0.314
same,glycan array binding signal (z-score),[22],-0.154
same,glycan array binding signal (z-score),Neu5Gc(a2-6)GalNAc,-0.149
same,glycan array binding signal (z-score),[23],0.009
same,glycan array binding signal (z-score),[24],0.084
same,glycan array binding signal (z-score),[25],0.005
same,glycan array binding signal (z-score),[26],-0.85
same,glycan array binding signal (z-score),[27],3.37

# Pulled one by one from above (2):
binder,measurement,setting,value
B1,glycan array binding signal (z-score),[13],0.893
same,glycan array binding signal (z-score),[5],0.298
